Laboratory results taken from PubChem BioAssay AID504467 (National Center for Advancing Translational Sciences (NCATS), 2011).
In all, about 330,000 compounds went through this assay and about 7,700 (2.3%) were called active. Inconclusive means that the source gave no clear call. Such entries were picked first, then a sample of the others. The call rests on the fitted dose curve; in most records, active means well fitted inhibition curve with a large enough effect; inconclusive means small, poorly fitted or top-dose-only effect, or effect the other way; inactive means flat fitted curve, though single readings scatter. A potency beside an inconclusive call is a rough fit, not a confirmed value.

Assay: qHTS screen for small molecules that inhibit ELG1-dependent DNA repair in human embryonic kidney (HEK293T) cells expressing luciferase-tagged ELG1; further: nearly all actives have a fitted effect of over 55% in size
Conditions: HEK293T ELG1-luciferase reporter, luminescence, 16 h, DNA damage induced by 5-fluorouridine; activity change, negative = inhibition: at 46.1 µM (top of the series)
Procedure, shortened: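 Overnight (16 hr) co-exposure of 2,000 cells/well to 5-fluorouridine and compound at 37 °C preceded detection. Luciferase was quantified via ONE-Glo luminescence; loss of signal denotes inhibition.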
On the % scale 0 is the no-effect control and ±100 the full control effect; potency means the concentration at half of the fitted maximal effect.

Row | SMILES | Potency | activity change, negative = inhibition
1 | CCCNC(=O)CSc1nccn1Cc1ccc(OC)cc1 | inconclusive: 14.6 µM [inhibitor, partial curve, poor fit] | 
2 | COCCNC(=O)NC12CC3CC(CC(C3)C1)C2 |  | inactive: 8.81%
3 | O=C(NC1CCN(Cc2ccccc2)CC1)C1CCN(c2nnc(-n3cccc3)s2)CC1 | inconclusive: 7.31 µM [inhibitor, single point] | 
4 | O=C1/C(=C/c2ccc(N3CCCC3)cc2)NC(=S)N1C1CC1 | inconclusive: 23.1 µM [inhibitor, partial curve, poor fit] | 
5 | CCOC(=O)c1cccc(NC(=S)NC(=O)c2cccnc2)c1 |  | inactive: 13.3%
6 | CCN1C(=O)[C@H]2[C@@H](c3ccc(-c4cccc(Cl)c4)c(OC)c3)N3CCC[C@@]3(C(=O)OC)[C@H]2C1=O |  | inactive: -5.63%
7 | C/C(=N\NC(=O)c1ccn(C)n1)c1ccco1 | inconclusive: 13 µM [activator, partial curve] | 
8 | COc1cccc2cc(C(=O)C3=C(O)C(=O)N(Cc4ccco4)C3c3cccnc3)oc12 (stereo not drawn) |  | inactive: -16.2%
9 | O=S(=O)(c1ccccc1)c1ccc(NCc2ccco2)cc1 | inconclusive: 18.4 µM [inhibitor, single point] | 
10 | COc1ccc(NC(=O)Cc2ccc(-c3ccccc3)cc2)cn1 | inconclusive: 8.2 µM [inhibitor, partial curve] | 
11 | CC(C)(C)NC(=O)c1ccc2c(c1)N(CC(=O)N1CCCC1)C(=O)C(C)(C)O2 |  | inactive: -6.15%
12 | COc1ccc(Nc2nc(Nc3ccc(OC)cc3OC)nc(N3CCN(C)CC3)n2)c(OC)c1 | inconclusive: 29.1 µM [inhibitor, single point] | 
13 | Nc1nc(SCC(=O)N2N=C(c3ccc(Cl)cc3)CC2c2ccco2)n[nH]1 (stereo not drawn) | inconclusive: 29.1 µM [inhibitor, single point] | 
14 | O=C1c2cccc3cccc(c23)C(=O)N1OS(=O)(=O)c1ccccc1 | inconclusive: 13 µM [activator, partial curve, poor fit] | 
15 | CN(C)CCNc1ncnc2c1sc1nc(-c3ccccc3)c3c(c12)CCCC3 | inconclusive: 29.1 µM [inhibitor, single point] | 
16 | Nc1ccnc(Oc2ccc(F)cc2)c1 | inconclusive: 23.1 µM [activator, single point] | 
17 | O=C(Nc1nnc(SCc2ccccc2)s1)C1=COCCO1 | inconclusive: 18.3 µM [activator, partial curve, poor fit] | 
18 | C[C@@H]1CCC(=O)N(C[C@@H](C)CSc2ccc(Br)cc2)CC1 |  | inactive: -0.709%
19 | COc1cc(CNCCc2ccccc2)cc(Cl)c1OCc1ccccc1 |  | inactive: -20.7%
20 | COc1ccnc(-n2cccc2C#N)c1C#N |  | inactive: 15.6%
21 | COc1ccc(N=Cc2cc(Cl)ccc2O)cc1Cl | inconclusive: 16.4 µM [activator, partial curve, poor fit] | 
22 | CCCc1cc(=O)[nH]c(SCC(=O)Nc2nc3ccc(OCC)cc3s2)n1 | inconclusive: 13 µM [activator, partial curve, poor fit] | 
23 | COCC(=O)Nc1cc(C)cn(Cc2ccccc2Cl)c1=O | inconclusive: 29.1 µM [activator, partial curve, poor fit] | 

Quoted at random: four entries already listed, in no set order.
Row | SMILES | Potency | activity change, negative = inhibition
13 | Nc1nc(SCC(=O)N2N=C(c3ccc(Cl)cc3)CC2c2ccco2)n[nH]1 (stereo not drawn) | inconclusive: 29.1 µM [inhibitor, single point] | 
10 | COc1ccc(NC(=O)Cc2ccc(-c3ccccc3)cc2)cn1 | inconclusive: 8.2 µM [inhibitor, partial curve] | 
5 | CCOC(=O)c1cccc(NC(=S)NC(=O)c2cccnc2)c1 |  | inactive: 13.3%
3 | O=C(NC1CCN(Cc2ccccc2)CC1)C1CCN(c2nnc(-n3cccc3)s2)CC1 | inconclusive: 7.31 µM [inhibitor, single point] | 

(list continues)

Row | SMILES | Potency | activity change, negative = inhibition
24 | O=C(CNC(=O)N1CC(=O)Nc2ccccc21)NCc1ccccc1Cl |  | inactive: 2.38%
25 | CCOc1ccc(N(CC(=O)N2CCN(c3ccc(F)cc3)CC2)S(=O)(=O)c2c(C)noc2C)cc1 |  | inactive: 3.3%
26 | COc1ccccc1-n1nnnc1SCC(=O)NCC1CCCO1 (stereo not drawn) | inconclusive: 0.013 µM [activator, full curve, poor fit] | 
27 | CC(C)c1ccccc1OCC(=O)NCC(c1cccs1)N1CCOCC1 (stereo not drawn) | inconclusive: 16.4 µM [inhibitor, partial curve] | 
28 | C=CCN(c1ccccc1)S(=O)(=O)c1cccc(C(=O)NCC(c2ccc(F)cc2)N2CCOCC2)c1 (stereo not drawn) | inconclusive: 6.51 µM [inhibitor, partial curve, poor fit] | 
29 | CCOc1ccc(NC(=O)C(=O)NCCN2CCN(C(=O)c3ccc(C)cc3)CC2)cc1 |  | inactive: 5.97%
30 | CCOC(=O)c1nn(-c2ccc([N+](=O)[O-])cc2)cc1O | inconclusive: 14.6 µM [activator, partial curve] | 
31 | COc1ccc(NC(=S)N/N=C/c2cccn2Cc2ccc(F)cc2Cl)cc1 | inconclusive: 14.6 µM [inhibitor, partial curve, poor fit] | 
32 | O=C(O)c1ccc(/C=N/NC(=O)C2CC2(c2ccccc2)c2ccccc2)cc1 (stereo not drawn) |  | inactive: -8.69%
33 | Cc1nc2ccc(NC(=O)Cc3ccc4c(c3)OCCO4)cc2s1 |  | inactive: 20.2%
34 | CC(=O)c1c(C)[nH]c(C(=O)CSc2nc3ccccc3c(=O)n2CCCN2CCOCC2)c1C | inconclusive: 20.6 µM [inhibitor, partial curve, poor fit] | 
35 | CC1CN(S(=O)(=O)c2cccc(C(=O)Nc3ccc4c(c3)CCC4)c2)CC(C)O1 (stereo not drawn) | inconclusive: 16.4 µM [activator, partial curve, poor fit] | 
36 | O=C(NCCC1CCCCN1S(=O)(=O)c1ccccc1)C(=O)Nc1ccccc1F (stereo not drawn) | inconclusive: 25.9 µM [inhibitor, single point] | 
37 | C=CCn1c(SCC(=O)c2ccc(O)c(O)c2)nnc1-c1ccc(OC)cc1 | inconclusive: 1.16 µM [inhibitor, single point] | 
38 | Cc1cc(NC(=O)c2ccco2)ccc1NC(=O)Cc1cccs1 | inconclusive: 23.1 µM [activator, partial curve] | 
39 | COc1ccc(C2CC(C(F)(F)F)n3nc(C(N)=O)c(Cl)c3N2)cc1OC (stereo not drawn) | inconclusive: 16.4 µM [inhibitor, partial curve, poor fit] | 
40 | O=[N+]([O-])c1cc(-c2cnc3ccccc3n2)ccc1Oc1ccc(Cl)cc1 | inconclusive: 13 µM [activator, partial curve] | 
41 | N/C(=N\OC(=O)c1ccc(Cl)c(Cl)c1)c1cccnc1 | inconclusive: 8.2 µM [activator, partial curve] | 
42 | COCc1nc(-c2ccc(-c3ccccc3)nc2OC)no1 |  | inactive: 27.8%
43 | Cc1ccc(-n2c(SCC(=O)N3CCN(c4ccccn4)CC3)nnc2N2CCCC2)cc1 | inconclusive: 29.1 µM [inhibitor, single point] | 
44 | COc1ccccc1N1CCN(c2nc3ccccn3c(=O)c2C=O)CC1 | inconclusive: 18.4 µM [activator, partial curve, poor fit] | 
45 | N#Cc1c(N)c(C#N)c(-c2ccc(O)cc2)c2c1CCCC2 | inconclusive: 25.9 µM [inhibitor, partial curve, poor fit] | 
46 | CCN(CC)CCN(Cc1cc2cc(C)ccc2[nH]c1=O)C(=O)Nc1ccccc1OC |  | inactive: -1.64%

Row | SMILES | Potency | activity change, negative = inhibition
47 | Cc1ccc(NC(=S)N(CCN(C)C)C(C)c2cccnc2)cc1 (stereo not drawn) |  | inactive: -6.97%
48 | O=C(Nc1ccc(NC(=O)c2ccccc2Cl)nc1)c1ccco1 | inconclusive: 14.6 µM [activator, partial curve] | 
49 | Cc1ccc(NC(=O)/C(C#N)=C/c2cn(CC(=O)NCc3ccco3)c3ccccc23)cc1C | inconclusive: 9.2 µM [activator, partial curve] | 
50 | CCc1ccccc1NC(=O)c1cnc2scc(C)n2c1=O | inconclusive: 18.4 µM [activator, single point] | 
51 | COc1ccc(NC(=O)NC2CCCCCCC2)cc1 | inconclusive: 5.17 µM [activator, partial curve] | 
52 | CC(C)n1ncc2c(C(=O)N3CCN(Cc4ccc(Cl)s4)CC3)cc(C3CC3)nc21 |  | inactive: -9.21%
53 | Cc1nnsc1Sc1ccccc1 | inconclusive: 23.1 µM [activator, partial curve, poor fit] | 
54 | Cc1cccc(C(=O)Nc2sc(C)c(-c3ccccc3)c2C#N)c1 | inconclusive: 2.31 µM [activator, partial curve] | 
55 | Cc1ccc(-n2c(SCc3cn4ccsc4n3)nc3ccccc3c2=O)cc1 | inconclusive: 23.1 µM [inhibitor, single point] | 
56 | COc1ccc(/C=C/C(=O)OCC(=O)NC2CCCC(C)C2C)cc1 (stereo not drawn) | inconclusive: 23.1 µM [activator, single point] | 
57 | Cc1ccc(/C=N/NC(=O)c2ccoc2C)s1 | inconclusive: 16.4 µM [activator, partial curve] | 
58 | Fc1ccc(N=c2ssnc2Cl)c(F)c1 | inconclusive: 23.1 µM [inhibitor, single point] | 
59 | CC(C)(C)c1ccc(C(=O)NC(=S)N2CCCC2)cc1 | inconclusive: 32.6 µM [activator, partial curve, poor fit] | 
60 | CC(=O)N1CCN(C(=O)c2cccc(S(=O)(=O)Nc3c(C)n(C)n(-c4ccccc4)c3=O)c2)CC1 |  | inactive: 24.9%
61 | O=C(Cn1ccc2ccccc2c1=O)NCCC(=O)Nc1ccc2c(c1)OCCO2 | inconclusive: 29.1 µM [activator, single point] | 
62 | CCN(CC(=O)Nc1c(F)cccc1F)C(=O)Cc1ccc2c(c1)CCC2 |  | inactive: 0.21%
63 | CC(Sc1nnc(NCc2ccccc2)s1)C(=O)Nc1ccc2c(c1)C(=O)c1ccccc1C2=O (stereo not drawn) |  | inactive: -22.8%
64 | COc1cccc(CN2CCN(C(=O)Nc3ccc([N+](=O)[O-])cc3)CC2)c1 | inconclusive: 29.1 µM [inhibitor, single point] | 
65 | N#CCCN(C(=O)COC(=O)CNS(=O)(=O)c1ccc2ccccc2c1)c1ccccc1 | inconclusive: 23.1 µM [activator, single point] | 
66 | Cn1ccnc1SCC(=O)Nc1ccc(Oc2ccccc2)cc1 | inconclusive: 13 µM [activator, partial curve] | 
67 | O=C(O)c1ccccc1NC(=O)C(Cc1ccccc1)N1C(=O)c2ccccc2C1=O (stereo not drawn) |  | inactive: 16.9%
68 | CC1CCN(S(=O)(=O)N2CCC(C(=O)NCc3cccnc3)CC2)CC1 |  | inactive: 14%
